This is an account of results in publication PMC5799255 (Scientific Reports, 2018).

Plain letter strings leave the end groups untold.

One data set is described as follows: peptide synthesis. To be noted: whole synthesis, TFA.
The nature of a further data set: peptide made by a vendor. The conditions noted are these: whole synthesis.

Take RVKASRRSASHPTYSEMIAAAIRAEKSRGG: in the data set “peptide synthesis” (HCl for H5(61–90) V2), the “purity (crude or final not stated)” value is recorded as 57.7%.
Same read-out and setting: then VLKQTKGVGASGSFRLAKSD, with 78.1%; and EMIAAAIRAEKSRGGSSRQSIQKYIKSHYK, with 81.9%.
On to LSIRRLLAAGVLKQTKGVGA, for which the “purity (crude or final not stated)” value in the data set “peptide synthesis” (HCl for H5(61–90) V2) came to 80.9%.
With VGHNADLQIKLSIRRLLAAGVLKQTKGVGA, the “purity (crude or final not stated)” value in the data set “peptide synthesis” was found to be 81.4%. The “final purity (method not given)” value in the data set “peptide made by a vendor” (HCl) is listed as 96.5%; in “peptide made by a vendor” (TFA) it was 95.5%.
For EMIAAAIRAEKSRGGSSRQS, the “purity (crude or final not stated)” value in “peptide synthesis” (HCl for H5(61–90) V2) is given as 50%.
